Assay results as given in the supplement of paper PMC4604168 (melanoma cell lines).
The other results are listed elsewhere or left out. Many values rest on one well or one pass, so single values are uncertain.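 The apoptosis fraction was the count of cleaved-PARP antibody-stained nuclei relative to all DNA-stained nuclei, imaged in 1,536-well plates. Screening doses were set so most cells survived, and baseline and induced cleaved-PARP levels vary greatly across cell lines.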

What was measured:
Experiment in all cases: cleaved PARP positive nuclei fraction relative to DMSO control; melanoma cells; higher = more apoptosis
Conditions in all cases: library dose: low library concentration; 72 h
501Mel = test system: 501Mel
A101D = test system: A101D
A2058 = test system: A2058
A375 = test system: A375
C32 = test system: C32
CBRC008 = test system: CBRC008 (line from a melanoma biopsy)
CBRC013 = test system: CBRC013 (line from a melanoma biopsy)
CBRC014 = test system: CBRC014 (line from a melanoma biopsy)
CBRC016 = test system: CBRC016 (line from a melanoma biopsy)
CBRC017 = test system: CBRC017 (line from a melanoma biopsy)
COLO792 = test system: COLO792
COLO800 = test system: COLO800
COLO829 = test system: COLO829
G361 = test system: G361
IPC-298 = test system: IPC-298
IST-MEL1 = test system: IST-MEL1
LB2518-MEL = test system: LB2518-MEL
LOXIMVI = test system: LOXIMVI
MEL-HO = test system: MEL-HO

Row | SMILES | cleaved PARP positive nuclei fraction (501Mel) [%] | cleaved PARP positive nuclei fraction (A101D) [%] | cleaved PARP positive nuclei fraction (A2058) [%] | cleaved PARP positive nuclei fraction (A375) [%] | cleaved PARP positive nuclei fraction (C32) [%] | cleaved PARP positive nuclei fraction (CBRC008) [%] | cleaved PARP positive nuclei fraction (CBRC013) [%] | cleaved PARP positive nuclei fraction (CBRC014) [%] | cleaved PARP positive nuclei fraction (CBRC016) [%] | cleaved PARP positive nuclei fraction (CBRC017) [%] | cleaved PARP positive nuclei fraction (COLO792) [%] | cleaved PARP positive nuclei fraction (COLO800) [%] | cleaved PARP positive nuclei fraction (COLO829) [%] | cleaved PARP positive nuclei fraction (G361) [%] | cleaved PARP positive nuclei fraction (IPC-298) [%] | cleaved PARP positive nuclei fraction (IST-MEL1) [%] | cleaved PARP positive nuclei fraction (LB2518-MEL) [%] | cleaved PARP positive nuclei fraction (LOXIMVI) [%] | cleaved PARP positive nuclei fraction (MEL-HO) [%]
1 | Nc1ccn([C@@H]2O[C@H](CO)[C@@H](O)C2(F)F)c(=O)n1 [gemcitabine] + C[C@@H]1CCN(C(=O)CC#N)C[C@@H]1N(C)c1ncnc2[nH]ccc12 [CP690550] (first compound 0.0004 µM, partner dose 1 µM) | 40.4 | 85.4 | 80.1 | 94.2 | 128 | 76.1 | 95.7 | 138 | 239 | 251 | 118 | 177 | 102 | 160 | 62.9 | 143 | 23.6 | 63.9 | 90.2
2 | O=C(O)c1ccc2c(c1)nc(Nc1cccc(Cl)c1)c1ccncc12 + CC1(C)NC(=O)N(c2ccc([N+](=O)[O-])c(C(F)(F)F)c2)C1=O [nilutamide] (first compound 0.4 µM, partner dose 1 µM) | 96.4 | 122 | 149 | 88 | 171 | 60.7 | 115 | 51.9 | 108 | 186 | 113 | 124 | 123 | 78.1 | 49.6 | 99 | 46.4 | 75.2 | 178
3 | CO[C@H]1C[C@@H]2CC[C@@H](C)[C@@](O)(O2)C(=O)C(=O)N2CCCC[C@H]2C(=O)O[C@H]([C@H](C)C[C@@H]2CC[C@@H](OCCO)[C@H](OC)C2)CC(=O)[C@H](C)/C=C(\C)[C@@H](O)[C@@H](OC)C(=O)[C@H](C)C[C@H](C)/C=C/C=C/C=C/1C [everolimus] + O=C(O)c1ccc(-c2c[nH]c3ncc(-c4ccccc4)cc23)cc1C1CCCC1 [GSK650394] (first compound 0.02 µM, partner dose 0.16 µM) | 139 | 48.2 | 141 | 357 | 72.5 | 233 | 80.7 | 97.6 | 45.1 | 140 | 390 | 150 | 75.3 | 138 | 115 | 76.5 | 133 | 72.8 | 163
4 | CCCS(=O)(=O)Nc1ccc(F)c(C(=O)c2c[nH]c3ncc(Cl)cc23)c1F + Cn1cncc1[C@@](N)(c1ccc(Cl)cc1)c1ccc2c(c1)c(-c1cccc(Cl)c1)cc(=O)n2C [tipifarnib] (first compound 0.08 µM, partner dose 0.01 µM) | 198 | 199 | 83.8 | 197 | 78.1 | 267 | 117 | 241 | 95.2 | 79.9 | 142 | 133 | 144 | 72.9 | 97.3 | 91.7 | 190 | 35.9 | 72.5
5 | Nc1nc(F)nc2c1ncn2[C@@H]1O[C@H](CO)[C@@H](O)[C@@H]1O [fludarabine] + COc1cc(Nc2ncc(F)c(Nc3ccc4c(n3)NC(=O)C(C)(C)O4)n2)cc(OC)c1OC [Tamatinib] (first compound 0.2 µM, partner dose 0.4 µM) | 1910 | 94 | 260 | 931 | 63 | 165 | 406 | 84.5 | 55.2 | 76.1 | 259 | 271 | 93.9 | 68.8 | 110 | 107 | 308 | 129 | 203
6 | CO[C@H]1C[C@@H]2CC[C@@H](C)[C@@](O)(O2)C(=O)C(=O)N2CCCC[C@H]2C(=O)O[C@H]([C@H](C)C[C@@H]2CC[C@@H](OCCO)[C@H](OC)C2)CC(=O)[C@H](C)/C=C(\C)[C@@H](O)[C@@H](OC)C(=O)[C@H](C)C[C@H](C)/C=C/C=C/C=C/1C [everolimus] + C=CCn1c(=O)c2cnc(Nc3ccc(N4CCN(C)CC4)cc3)nc2n1-c1cccc(C(C)(C)O)n1 [MK1775] (first compound 0.02 µM, partner dose 0.02 µM) | 146 | 138 | 154 | 3340 | 87 | 137 | 187 | 78.7 | 38.8 | 109 | 243 | 147 | 182 | 187 | 141 | 123 | 64.4 | 303 | 84.9
7 | CNC(=O)c1cc(Oc2ccc(NC(=O)Nc3ccc(Cl)c(C(F)(F)F)c3)cc2)ccn1 [sorafenib] + CC(C)(C)c1cnc(CSc2cnc(NC(=O)C3CCNCC3)s2)o1 [SNS-032] (first compound 0.4 µM, partner dose 0.01 µM) | 90.4 | 80.9 | 115 | 35.3 | 239 | 149 | 132 | 212 | 58.8 | 98 | 40.2 | 18.5 | 37 | 63.6 | 173 | 212 | 43.5 | 62.4 | 35.5
8 | CS(=O)(=O)CCNCc1ccc(-c2ccc3ncnc(Nc4ccc(OCc5cccc(F)c5)c(Cl)c4)c3c2)o1 [lapatinib] + NC(=O)Nc1cc(-c2cccc(F)c2)sc1C(=O)N[C@H]1CCCNC1 [AZD7762] (first compound 0.8 µM, partner dose 0.02 µM) | 164 | 217 | 159 | 527 | 184 | 242 | 86 | 83.3 | 66.6 | 116 | 174 | 70.1 | 87.2 | 168 | 86.2 | 61 | 73.7 | 81.7 | 88.7
9 | O=C(O)c1ccc2c(c1)nc(Nc1cccc(Cl)c1)c1ccncc12 + CN(NC(=O)CC(=O)NN(C)C(=S)c1ccccc1)C(=S)c1ccccc1 [STA4783] (first compound 0.4 µM, partner dose 0.006 µM) | 506 | 78.8 | 144 | 1010 | 86.9 | 474 | 151 | 715 | 278 | 184 | 172 | 58.6 | 200 | 112 | 60.3 | 92.9 | 89 | 60 | 96.9
10 | CC(C)C[C@H](NC(=O)[C@H](Cc1ccccc1)NC(=O)c1cnccn1)B(O)O [Bortezomib] + O=C(O)c1ccc(-c2c[nH]c3ncc(-c4ccccc4)cc23)cc1C1CCCC1 [GSK650394] (first compound 0.001 µM, partner dose 0.16 µM) | 174 | 784 | 56.1 | 20 | 96.3 | 1010 | 95 | 251 | 951 | 424 | 133 | 60.6 | 264 | 2900 | 245 | 233 | 232 | 101 | 75.9
11 | O=C(O)[C@@H]1[O][Sb](=[O])([O][Sb]2(=[O])[O][C@H]([C@H](O)CO)[C@H](O)[C@H](C(=O)O)[O]2)[O][C@H]([C@H](O)CO)[C@@H]1O (stereo partly drawn) [stibogluconate] + CN(C)S(=O)(=O)c1ccc2c(c1)/C(=C/c1cc3c([nH]1)CCCC3)C(=O)N2 [SU6656] (first compound 2 µM, partner dose 0.4 µM) | 92.9 | 62.3 | 127 | 146 | 67.8 | 64.3 | 105 | 91.5 | 89.4 | 246 | 83.2 | 35.9 | 37.9 | 89.3 | 57.9 | 141 | 61.5 | 63.6 | 43.2
12 | CS(=O)(=O)CCNCc1ccc(-c2ccc3ncnc(Nc4ccc(OCc5cccc(F)c5)c(Cl)c4)c3c2)o1 [lapatinib] + Cc1cc(N2CCOCC2)cc2[nH]c(-c3c(NC[C@@H](O)c4cccc(Cl)c4)cc[nH]c3=O)nc12 [BMS536924] (first compound 0.8 µM, partner dose 0.2 µM) | 185 | 47.5 | 103 | 105 | 219 | 192 | 167 | 112 | 52.7 | 86.5 | 49.8 | 204 | 79.1 | 276 | 49 | 51.8 | 103 | 15.6 | 67.1
13 | CN1CCN(c2ccc3nc(-c4c(N)c5c(F)cccc5[nH]c4=O)[nH]c3c2)CC1 [Dovitinib] + CC1(C)NC(=O)N(c2ccc([N+](=O)[O-])c(C(F)(F)F)c2)C1=O [nilutamide] (first compound 0.1 µM, partner dose 1 µM) | 122 | 41.4 | 77.2 | 54.8 | 30 | 54.2 | 127 | 76.3 | 56.2 | 61.6 | 27.5 | 81 | 82.7 | 52.4 | 266 | 50.9 | 80.2 | 82.7 | 135
14 | Cc1cc(Nc2cc(N3CCN(C)CC3)nc(/C=C/c3ccccc3)n2)n[nH]1 + Cc1ccc(NC(=O)c2cccc(N(C)C)c2)cc1NC(=O)c1ccc(O)cc1 [ZM336372] (first compound 0.04 µM, partner dose 2 µM) | 140 | 81.6 | 73.5 | 157 | 96.1 | 34.2 | 115 | 637 | 201 | 92.8 | 185 | 157 | 241 | 74.3 | 26.4 | 93 | 54.9 | 945 | 125
15 | C[C@@H](Oc1cc(-c2cnn(C3CCNCC3)c2)cnc1N)c1c(Cl)ccc(F)c1Cl [Crizotinib] + NCC(=O)Nc1ccc(-n2nc(C(F)(F)F)cc2-c2ccc3c(ccc4ccccc43)c2)cc1 [OSU03012] (first compound 0.2 µM, partner dose 1 µM) | 391 | 95.5 | 67 | 2030 | 87.1 | 128 | 81.8 | 80 | 91.5 | 62.6 | 99.5 | 32.7 | 125 | 113 | 223 | 392 | 97 | 29.4 | 79.2
16 | C=C(c1ccc(C(=O)O)cc1)c1cc2c(cc1C)C(C)(C)CCC2(C)C [Bexarotene] + CC1(C)NC(=O)N(c2ccc([N+](=O)[O-])c(C(F)(F)F)c2)C1=O [nilutamide] (first compound 2 µM, partner dose 1 µM) | 155 | 160 | 62.5 | 65.3 | 202 | 171 | 145 | 117 | 175 | 104 | 162 | 101 | 93.5 | 44.8 | 94.1 | 97 | 142 | 26.6 | 144
17 | O=C(O)[C@@H]1[O][Sb](=[O])([O][Sb]2(=[O])[O][C@H]([C@H](O)CO)[C@H](O)[C@H](C(=O)O)[O]2)[O][C@H]([C@H](O)CO)[C@@H]1O (stereo partly drawn) [stibogluconate] + CN(NC(=O)CC(=O)NN(C)C(=S)c1ccccc1)C(=S)c1ccccc1 [STA4783] (first compound 2 µM, partner dose 0.006 µM) | 108 | 170 | 42.7 | 1250 | 49.9 | 1060 | 124 | 149 | 87.2 | 186 | 75.1 | 92.7 | 155 | 62.1 | 48.5 | 103 | 154 | 58.3 | 65.3

Single records (already shown). Order of values: cleaved PARP positive nuclei fraction (501Mel) [%] | cleaved PARP positive nuclei fraction (A101D) [%] | cleaved PARP positive nuclei fraction (A2058) [%] | cleaved PARP positive nuclei fraction (A375) [%] | cleaved PARP positive nuclei fraction (C32) [%] | cleaved PARP positive nuclei fraction (CBRC008) [%] | cleaved PARP positive nuclei fraction (CBRC013) [%] | cleaved PARP positive nuclei fraction (CBRC014) [%] | cleaved PARP positive nuclei fraction (CBRC016) [%] | cleaved PARP positive nuclei fraction (CBRC017) [%] | cleaved PARP positive nuclei fraction (COLO792) [%] | cleaved PARP positive nuclei fraction (COLO800) [%] | cleaved PARP positive nuclei fraction (COLO829) [%] | cleaved PARP positive nuclei fraction (G361) [%] | cleaved PARP positive nuclei fraction (IPC-298) [%] | cleaved PARP positive nuclei fraction (IST-MEL1) [%] | cleaved PARP positive nuclei fraction (LB2518-MEL) [%] | cleaved PARP positive nuclei fraction (LOXIMVI) [%] | cleaved PARP positive nuclei fraction (MEL-HO) [%]
O=C(O)[C@@H]1[O][Sb](=[O])([O][Sb]2(=[O])[O][C@H]([C@H](O)CO)[C@H](O)[C@H](C(=O)O)[O]2)[O][C@H]([C@H](O)CO)[C@@H]1O (stereo partly drawn) [stibogluconate] + CN(C)S(=O)(=O)c1ccc2c(c1)/C(=C/c1cc3c([nH]1)CCCC3)C(=O)N2 [SU6656] (first compound 2 µM, partner dose 0.4 µM) in the list: 92.9 | 62.3 | 127 | 146 | 67.8 | 64.3 | 105 | 91.5 | 89.4 | 246 | 83.2 | 35.9 | 37.9 | 89.3 | 57.9 | 141 | 61.5 | 63.6 | 43.2
CNC(=O)c1cc(Oc2ccc(NC(=O)Nc3ccc(Cl)c(C(F)(F)F)c3)cc2)ccn1 [sorafenib] + CC(C)(C)c1cnc(CSc2cnc(NC(=O)C3CCNCC3)s2)o1 [SNS-032] (first compound 0.4 µM, partner dose 0.01 µM) in the list: 90.4 | 80.9 | 115 | 35.3 | 239 | 149 | 132 | 212 | 58.8 | 98 | 40.2 | 18.5 | 37 | 63.6 | 173 | 212 | 43.5 | 62.4 | 35.5
